US20210188931A1
No constants are given. Whether binding was seen depends on the method and setting. Some entries that bind do so weakly or less than the wild type.

Molecular target: modified EGF protein (EGF-derivative)
Test: affinity chromatography on a Protein A column (MabSelect); capture from cell supernatant, washes, elution at low pH

binding: binds
Substance: Protein A (from UniProt P38507 37-327)
